From patent US20210002231A1 (Centre National de la Recherche Scientifique, priority 2018, published 2021)
For some of these results: For at least one compound, name, drawing or mass did not settle the structure. Some results were stated once for a whole list of compounds, not compound by compound. Residues, ends and D or L forms follow the SMILES beside them.

By UniProt entry, the sequences of proteins in these tests, tags left out. Where a name states a change or a piece, a line headed by the entry shows the natural chain unless it says otherwise.
UniProt Q9GZQ6: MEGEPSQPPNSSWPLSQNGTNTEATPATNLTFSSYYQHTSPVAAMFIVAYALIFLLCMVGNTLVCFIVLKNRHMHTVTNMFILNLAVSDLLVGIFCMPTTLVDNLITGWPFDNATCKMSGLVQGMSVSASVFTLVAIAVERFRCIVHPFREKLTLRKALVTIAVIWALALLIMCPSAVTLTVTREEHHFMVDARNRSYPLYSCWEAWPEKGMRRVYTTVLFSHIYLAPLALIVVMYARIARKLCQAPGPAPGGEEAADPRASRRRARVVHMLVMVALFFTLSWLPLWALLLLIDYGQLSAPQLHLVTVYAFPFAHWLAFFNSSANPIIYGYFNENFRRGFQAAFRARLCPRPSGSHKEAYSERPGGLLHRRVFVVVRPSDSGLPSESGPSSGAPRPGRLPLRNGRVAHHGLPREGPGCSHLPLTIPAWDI
UniProt Q9Y5X5: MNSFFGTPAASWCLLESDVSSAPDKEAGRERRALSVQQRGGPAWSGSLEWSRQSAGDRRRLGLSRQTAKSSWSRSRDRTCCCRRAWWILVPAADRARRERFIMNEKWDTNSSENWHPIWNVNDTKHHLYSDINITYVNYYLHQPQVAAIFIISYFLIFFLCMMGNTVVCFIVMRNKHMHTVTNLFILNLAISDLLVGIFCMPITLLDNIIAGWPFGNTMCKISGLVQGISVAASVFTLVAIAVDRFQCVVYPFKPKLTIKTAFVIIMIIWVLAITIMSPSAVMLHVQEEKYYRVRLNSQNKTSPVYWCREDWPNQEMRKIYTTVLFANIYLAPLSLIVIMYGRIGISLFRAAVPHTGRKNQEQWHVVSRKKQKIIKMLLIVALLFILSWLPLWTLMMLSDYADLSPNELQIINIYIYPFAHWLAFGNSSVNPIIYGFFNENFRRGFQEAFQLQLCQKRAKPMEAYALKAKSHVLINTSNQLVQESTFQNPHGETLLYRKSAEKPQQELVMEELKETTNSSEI
UniProt P35372, whole entry: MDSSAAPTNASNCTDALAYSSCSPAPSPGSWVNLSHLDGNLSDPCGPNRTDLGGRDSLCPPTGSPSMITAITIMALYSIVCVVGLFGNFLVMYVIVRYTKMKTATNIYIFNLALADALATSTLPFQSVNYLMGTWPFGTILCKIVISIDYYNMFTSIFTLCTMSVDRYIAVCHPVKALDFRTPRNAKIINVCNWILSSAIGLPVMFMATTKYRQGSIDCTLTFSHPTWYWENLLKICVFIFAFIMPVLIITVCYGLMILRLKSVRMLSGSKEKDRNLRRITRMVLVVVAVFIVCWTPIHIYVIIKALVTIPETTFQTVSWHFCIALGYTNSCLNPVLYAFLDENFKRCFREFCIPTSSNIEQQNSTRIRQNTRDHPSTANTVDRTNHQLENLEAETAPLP

How the values were obtained:
[1] = tested on: C57BL/6N mice; assay: Hyperalgesia and analgesic tolerance upon chronic sc. treatment, tail immersion test; type: in vivo; settings: daily sc. d1-d8; KGOP01 1.8, KGFF03 1.2, KGFF09 7.4 μmol/kg/d
Procedure: Animal experiments were performed on adult male C57BL/6N male mice (25-30 g weight; Janvier labs, France). Animals were housed in groups of three to five per cage and kept under a 12 h/12 h light/dark cycle at 21±1° C. with ad libitum access to food and water. Experiments were performed during the light-on phase of the cycle. Mice were habituated to the testing room and equipment before starting behavioral experiments. Control and treated group assignment as well as pain response measurements were performed in a blinded manner. Every animal was used only once. 1.11. Drug administration All drugs were dissolved in physiological saline (0.9%) and administered subcutaneously (sc.) at 10 mL/kg (volume/body weight). […] Assessment of thermal nociception The nociceptive sensitivity to thermal stimulation was determined in mice using the warm-water tail immersion tests as previously described [12; 49]. In the tail immersion test, C57BN/6N mice were restrained in a grid pocket and their tail was immersed in a thermostated water bath. […] For analgesic tolerance evaluation, nociceptive latencies were measured on day 1 and 8 according to the acute effect protocol. For the assessment of hyperalgesia, basal nociceptive latencies were measured every day, 30 min before drug or saline injection. Responses are expressed as latency times (in sec) of tail withdrawal from the hot water.

[2] = tested on: C57BL/6N mice; assay: CFA-induced inflammatory pain model; type: in vivo; settings: daily sc., measured 2 h after injection
Procedure: Tail inflammation in C57BL/6N mice was induced by injecting subcutaneously 20 μl of a Complete Freund's Adjuvant (CFA) solution or saline (control mice) 3 cm from the tip of the tail. Twenty-four hours after CFA injection (day 1), inflammation was confirmed by measuring thermal and mechanical hyperalgesia. Mice were then treated sc. daily for 7 days (from day 1 to day 7) with the test compounds or saline (control). Nociceptive threshold to heat stimulation was measured by tail immersion test (47.5±0.5° C.) and tail pressure test each hour for 5 h after the first drug administration in order to determine the peak of the anti-hyperalgesic response. During the following days, basal nociceptive thresholds were evaluated before injection and 2 h after drug injection. Antinociceptive response was calculated as percent of Maximum Possible Effect (% MPE) according to the formula=[(test latency−CFA/saline mice latency)/(cut-off time−CFA/saline mice latency)]×100. In order to limit behavioral sensitization, thermal nociception was evaluated on days 1-2-4-6 and mechanical nociception on days 1-3-5-7.

[3] = target: NPFF1R (Homo sapiens, UniProt Q9GZQ6); assay: Glo-sensor cAMP assay, agonist and antagonist mode; type: cell-based; parameters: expressed in transfected cells; HEK293-Glo20F cells (cAMP); settings: read-out: NPFF1R (cAMP) Antagonist mode IC50; in the presence of 50 nM RFRP3; 0.5, 5 and 50 μM test compound
[4] = target: NPFF2R (Homo sapiens, UniProt Q9Y5X5); assay: Glo-sensor cAMP assay, agonist and antagonist mode; type: cell-based; parameters: expressed in transfected cells; HEK293-Glo20F cells (cAMP); settings: read-out: NPFF2R (cAMP) Antagonist mode IC50; in the presence of 200 nM NPFF; 0.5, 5 and 50 μM test compound
[5] = target: human MOPr (Homo sapiens, UniProt P35372); assay: BRET1 β-arrestin-2 recruitment assay; type: cell-based; parameters: expressed in transfected cells; host or cells: HEK293 cells stably expressing eYFP-β-arrestin-2, transiently transfected with the Rluc8-MOP plasmid; settings: Table 3B; — = non-detectable recruitment
Procedure: Peak response amplitudes were normalized to basal and maximal (cells permeabilized with 20 μM digitonin) fluorescence levels. 1.8. β-Arrestin-2 recruitment assay The β-arrestin-2 recruitment assay was performed as described [34; 45] with minor modifications. Briefly, two days prior the experiment, HEK293 cells stably expressing eYFP-tagged β-arrestin-2 were transfected with the plasmid encoding Rluc8-MOP receptor. β-Arrestin-2 recruitment was measured at 37° C. in presence of 5 μM Coelenterazine H, 5 min after agonist addition.

Compound | decrease in antinociception efficacy (AUC) on day 8 compared to day 1 [1] | decreased analgesia after repeated administrations (thermal and mechanical) [2] [%] | IC50 [3] [µM] | IC50 [4] [µM] | EC50 [5] [nM]
Cc1cc(O)cc(C)c1C[C@H](N)C(=O)N[C@H](CCCNC(=N)N)C(=O)N[C@H]1Cc2ccccc2CN(CCC(N)=O)C1=O [KGOP01, reference compound] | more than 75% | > 75 |  |  | 
Cc1cc(O)cc(C)c1C[C@H](N)C(=O)N[C@H](CCCNC(=N)N)C(=O)N[C@H]1Cc2ccccc2CN(CCC(=O)N[C@@H](CCCN2CCc3ccccc3C2)C(=O)N[C@@H](Cc2ccccc2)C(N)=O)C1=O [DP0026, H-Dmt-D-Arg-Aba-β-Ala-THIQ-Phe-NH2] |  |  | > 5 | ~50 | ~50
Cc1cc(O)cc(C)c1C[C@H](N)C(=O)N[C@H](CCCNC(=N)N)C(=O)N[C@H]1Cc2ccccc2CN(CCC(=O)N[C@@H](CCCNC(=N)N)C(=O)N[C@@H](Cc2ccccc2)C(N)=O)C1=O [KGFF03, H-Dmt-D-Arg-Aba-β-Ala-Arg-Phe-NH2] (HELM PEPTIDE1{[Cc1cc(O)cc(C)c1C[C@H](N)C(=O)[*:2]].[dR].[O=C1[C@@H](N[*:1])Cc2ccccc2CN1CCC(=O)[*:2]].R.F.[am]}$$$$V2.0) | more than 75% | > 75 |  |  | 
